# Experimental data as given in the supplement of paper PMC10338343.
# ± gives the standard deviation. The list shows a part of the results, in another mix than the full data. The uncertainty is large for many entries.
# Experiments:
# [1] = tested on: MILI (PIWIL2) piRISC loaded with piRNA #1 (26 nt); experiment: pre-steady-state target cleavage rate (min^-1); higher = faster piRNA-guided slicing of the target; conditions: guide: piRNA #1 5'p-UGAGGUAGUAGGUUGUAUAGUAUCCA; auxiliary factor: 500 nM mouse GTSF1
# In short: (§1)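 Cleave-'n-Seq measured uncleaved targets by sequencing after a transcribed, DNA-blocked target RNA library […] was mixed with 1 nM active affinity-purified piRISC holding one synthetic guide, with or without 500 nM GTSF1 partner protein, at 33 °C in HEPES–potassium acetate buffer for 0–8 or 0–960 min. Counts were normalised to depth and to weakly complementary targets, three trials were pooled, and k3 was capped at 0.0001 min^-1. A burst-and-steady-state fit gave the pre-steady-state cleavage rate.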
# [2] = tested on: MIWI (PIWIL1) piRISC loaded with piRNA #1 (30 nt); experiment: as above; conditions: guide: piRNA #1 5'p-UGAGGUAGUAGGUUGUAUAGUAUCCAGAGG; auxiliary factor: 500 nM mouse GTSF1
# In short: as §1
# [3] = tested on: EfPiwi piRISC loaded with piRNA #1 (26 nt); experiment: pre-steady-state target cleavage rate (min^-1); guide: piRNA #1 5'p-UGAGGUAGUAGGUUGUAUAGUAUCCA; MIWI and MILI are mouse PIWI proteins and EfPiwi is from a freshwater sponge; tags in brackets are library labels; higher = faster piRNA-guided slicing of the target; conditions: auxiliary factor: 500 nM Ephydatia muelleri Gtsf1
# In short: as §1
Sequence,pre-steady-state target cleavage rate [1],pre-steady-state target cleavage rate [2],pre-steady-state target cleavage rate [3]
GGAGACCUAUGAUAUCAACCCUACUACCUCA,0.000139 ± 0.016,0.000104 ± 0.019,0.000482 ± 0.009
GGAGACCUAUGAUAUGUUGCUACUACCUCG [g2:g11:cont:t1G],0.000325 ± 0.015,0.000617 ± 0.007,0.000672 ± 0.008
GGAGACCUAUGAUAUCAACCUACUACGUGA,0.000168 ± 0.013,0.000469 ± 0.0069,0.000176 ± 0.016
GGAGACCUAUCAAUACAACCAACUACCUCA,0.00756 ± 0.0033,0.0016 ± 0.0043,0.0011 ± 0.0082
GGAGACCUAUGAUAACAUCCUACUACCACA,0.00266 ± 0.0037,0.000651 ± 0.0082,0.000246 ± 0.018
GGAGACCUAUGAUUACAACCUAGUACCUCA,0.00239 ± 0.0027,0.00196 ± 0.0023,0.00254 ± 0.0039
GGAGACCUAUGAUAUGUUGCUACUAACCUCA,0.000404 ± 0.011,0.000563 ± 0.0067,0.000573 ± 0.0052
GGAGAGGAUACUAUACAACCUUGAUGGAGA [g10:g25:cont:t1A],0.00052 ± 0.0089,0.0006 ± 0.0088,0.00183 ± 0.003
GGAGACCUAUGAUAACAAGCUACAACCUCA,0.0095 ± 0.0029,0.000209 ± 0.0089,0.000995 ± 0.0093
GGAGACCUAACUAUAGAACCUACUAGCUCA,0.00426 ± 0.0041,0.00321 ± 0.0051,0.00137 ± 0.0087
GGAGACCUAUGAUAUCAACCUAGCUACCUCA,0.00339 ± 0.0024,0.00046 ± 0.006,0.00027 ± 0.015
GGAGACCUUACUAUACAACCUUGAUGGAGA [g10:g22:cont:t1A],0.00047 ± 0.0072,0.000682 ± 0.008,0.000744 ± 0.0077
GGAGACCUAACUAUACAACGUACUAGCUCA,0.0048 ± 0.0062,0.024 ± 0.0084,0.00367 ± 0.0038
GGAGACCUAUGAUUACAACCUACUAUCUCA,0.00332 ± 0.0022,0.000269 ± 0.0073,0.000633 ± 0.0061
GGAGACCUAUCUAUACAACCUGACUACCUCA,0.00288 ± 0.0031,0.00102 ± 0.0059,0.00169 ± 0.0054
GGAGACCUAUGAUAUCAUCGUACUACCUCA,0.000168 ± 0.015,0.000177 ± 0.0083,0.000375 ± 0.0059
GGAGACCUAUGAUAUGUUCCAACUACCUCA,0.000397 ± 0.011,0.000307 ± 0.0092,0.000304 ± 0.0078
GGAGACCUAUGAUAUGUACUACUACCUCA,0.000139 ± 0.013,0.000428 ± 0.0083,0.00151 ± 0.0051
GGAGACCUAUGAUUACAACCAAGUACCUCA,0.00279 ± 0.0028,0.000863 ± 0.0036,0.00085 ± 0.013
GGAGACCUAUGAUUACAACCUAACUACCUCA,0.00301 ± 0.0031,0.000806 ± 0.005,0.000543 ± 0.01
GGAGACCUAUGAUUACAUACCUACUACCUCA,0.000551 ± 0.0094,0.000146 ± 0.019,0.000811 ± 0.0071
GGAGACGAUACUAUACAACCGUACUACCUCA,0.0039 ± 0.0039,0.000519 ± 0.015,0.00284 ± 0.0035
GGAGACCUAUGAAUACAACCUACAACCUGA,0.000919 ± 0.0057,0.000114 ± 0.019,0.000272 ± 0.0094
GGAGACCUAUGUAUACAUACCUACUACCUCA,0.00105 ± 0.008,0.000655 ± 0.012,0.000338 ± 0.011
GGAGACCUAUGAUAACAACCAACUUCCUCA,0.000655 ± 0.0066,0.00028 ± 0.0063,0.000621 ± 0.01

# Part of the list above, as tab-separated lines:
Sequence	pre-steady-state target cleavage rate [1]	pre-steady-state target cleavage rate [2]	pre-steady-state target cleavage rate [3]
GGAGACCUAUGAUAUGUUGCUACUACCUCG [g2:g11:cont:t1G]	0.000325 ± 0.015	0.000617 ± 0.007	0.000672 ± 0.008
GGAGACCUAUGAUUACAACCUAGUACCUCA	0.00239 ± 0.0027	0.00196 ± 0.0023	0.00254 ± 0.0039

# Further results

Sequence,pre-steady-state target cleavage rate [1],pre-steady-state target cleavage rate [2],pre-steady-state target cleavage rate [3]
GGAGACCUAUGUAUUGUACCUACUACCUCA,0.000225 ± 0.011,0.000151 ± 0.013,0.00155 ± 0.0056
GGAGACCUAUGAUAACAUCCAACUACCUCA,0.000732 ± 0.0056,0.000202 ± 0.01,0.000357 ± 0.0064
GGAGACCUAUGAUAUGUUGCUAGUACGUCA,0.000508 ± 0.015,0.000729 ± 0.008,0.000982 ± 0.0065
GGAGACCUAUGAUAACAACCUACUAGCUCA,0.00272 ± 0.003,0.000612 ± 0.0076,0.000282 ± 0.0081
GGAGACCUAUGAUAACUACCUACUAGCUCA,0.00197 ± 0.0041,0.00011 ± 0.018,0.000277 ± 0.0084
GGAGACCUAUGAUAUCUUCCUACUACCUCA,0.000208 ± 0.011,0.000181 ± 0.013,0.00107 ± 0.0055
GGAGACCUAUGAUAACAACCAUCUACCUCA,0.0023 ± 0.0026,0.00019 ± 0.012,0.000199 ± 0.012
GGAGACCUAUGAUAUGUUGCUACUUCCUGA,0.000328 ± 0.0083,0.000237 ± 0.015,0.000127 ± 0.013
GGAGACCUAUGAUAACAACCUACUUCGUCA,0.001 ± 0.0089,0.000229 ± 0.017,0.000144 ± 0.014
GGAGACCUAUGUAUACAACCUACUAGGAGA [g6:g19:cont:t1A],0.000624 ± 0.011,0.000824 ± 0.006,0.000813 ± 0.009
GGAGACCUAUGAUUACAACGAUCUACCUCA,0.00115 ± 0.0056,0.000541 ± 0.0086,0.000745 ± 0.0066
GGAGACCUAUGAUUACAUCCUAGUACCUCA,0.00204 ± 0.0037,0.000779 ± 0.0052,0.00052 ± 0.0062
GGAGACCUAUGAAUACAACCGUACUACCUCA,0.00389 ± 0.003,0.000878 ± 0.0056,0.00053 ± 0.016
GGAGACCUAUGAUUACAACCACUACCUCA,0.000496 ± 0.011,0.000791 ± 0.0068,0.000744 ± 0.008
GGAGACCUAUGAUAUCAACCAACAACCUCA,0.000352 ± 0.0091,0.000407 ± 0.0074,0.000424 ± 0.018
GGAGACCUAUGAUAUGUUGCUAGUACCUCA,0.000351 ± 0.014,0.000386 ± 0.012,0.00044 ± 0.0091
GGAGACCUAUGAUAACAACUACUACCUCA,0.000239 ± 0.012,0.000115 ± 0.023,0.000688 ± 0.0067
GGAGACCUAUGAUAACAACCAACUACCACA,0.00177 ± 0.004,0.000207 ± 0.011,0.000411 ± 0.029
GGAGACCUAUGAUAUCAGCCUACUACCUCA,0.000194 ± 0.012,0.000216 ± 0.0091,0.000838 ± 0.0061
GGAGACCUAUGAUAUGUUGCUUCUACCUCA,0.000407 ± 0.0092,0.000524 ± 0.01,0.000616 ± 0.0069
GGAGACCUAUGAAUACAACCUAUCUACCUCA,0.00974 ± 0.0026,0.00145 ± 0.0043,0.000182 ± 0.015
GGAGACCUAUGAUAACAACCUACUACCAUCA,0.00305 ± 0.0034,0.00102 ± 0.0053,0.000334 ± 0.018
GGAGACCUAUCUAUAGAACCUAGUACCUCA,0.00211 ± 0.0024,0.0363 ± 0.0089,0.00025 ± 0.009
GGAGACCUAUGAUAUGUACCAUACUACCUCA,0.000406 ± 0.013,0.000583 ± 0.0096,0.000678 ± 0.01
GGAGACCUAUGAUAUCAACCUAGUACGUCA,0.000236 ± 0.015,0.000179 ± 0.01,0.000447 ± 0.0076
